From PubChem BioAssay AID292 (DTP/NCI, 2004)
The list does not hold the whole screen: it is rich in T/C values a quarter to a half above the control, in often repeated tests (any T/C) and in doses without a T/C. Other doses and runs of a compound stand elsewhere. T/C gives the treated animals as a percentage of the vehicle group. Some entries give survivors of the animals treated and no T/C: the source files T/C as zero there, which appears to mark a toxic dose or a test without result, not a measured value. Some survivor counts are full or nearly so, which does not show that the dose was tolerated: the source hardly ever lists a survival T/C far under the control, and the zero likely stands for such cases as well. Counts of survivors are from the toxicity check (mostly the fifth day) where no day follows; animals may have died later. Schedules are NCI's codes, taken here to give the interval after Q, in days (D) or hours (H), and the number of doses after X. Where survival is the endpoint, the PubChem record calls one and a half times the control and up active, and a quarter to a half above the control has no call in these data; cut-offs in other NCI protocols can differ. Some entries hold several experiments; the values are given in rising order. Some T/C values are followed by the survivors on the day toxicity was checked, most often the fifth; where none is given, no animal had died by that day.

System: B6C3F1 mice, ip Sarcoma M5076, median survival T/C
Assay: NCI In Vivo Anticancer Drug Screen. Data for tumor model Sarcoma M5076 (intraperitoneal) in B6C3F1 mice
Conditions: T/C endpoint: median survival time, higher T/C = longer survival
Procedure: The antitumor activity of compounds was measured in mice bearing transplantable tumors. Survival or tumor size were measured and the results are expressed as the measurement made in the treated group (T) divided by the measurement made in the vehicle treated control group (C). The tumor model used in this assay is Sarcoma M5076 (intraperitoneal) in B6C3F1 mice

[1] = dose: 800.0 mg/kg/injection, schedule: Q04DX004 (ip), vehicle: Klucel (hydroxypropylcellulose) (HPC)

In the case of COC1CC(C)C(OC)c2cc(O)cc(c2O)NC(=O)/C(C)=C/C=C\C(C)C(OC(N)=O)/C(C)=C\C(C)C1OC (centres undefined), the T/C (dose: 3.0 mg/kg/injection, schedule: Q01DX009 (ip), vehicle: saline + alcohol) is reported as 139 % of control, the T/C (dose: 5.0 mg/kg/injection, schedule: Q01DX009 (ip), vehicle: saline + alcohol) is reported as 125 [8 of 10 alive on day 14] and 149 % of control and the T/C (dose: 8.3 mg/kg/injection, schedule: Q01DX009 (ip), vehicle: saline + alcohol) is reported as 146 % of control [8 of 10 alive on day 14]. The survivor count (dose: 10.0 mg/kg/injection, schedule: Q01DX009 (ip), vehicle: saline + alcohol) was 0 of 10 on day 14.

C=CCOc1cc2c(cc1C(C)c1ccc(OC)cc1)OCO2 (centres undefined) was tested, and the T/C (dose: 400.0 mg/kg/injection, schedule: Q04DX004 (ip), vehicle: Klucel (hydroxypropylcellulose) (HPC)) was 133 % of control, the survivor count (dose: 600.0 mg/kg/injection, schedule: Q04DX004 (ip), vehicle: Klucel (hydroxypropylcellulose) (HPC)) was 3 of 10 on day 14 and the T/C (dose: 666.67 mg/kg/injection, schedule: Q04DX004 (ip), vehicle: Klucel (hydroxypropylcellulose) (HPC)) was 129 % of control. The T/C (dose: 1111.12 mg/kg/injection, schedule: Q04DX004 (ip), vehicle: Klucel (hydroxypropylcellulose) (HPC)) was 149 % of control.

For COc1cccc(C2NC(=S)NC(=O)C2C#N)c1 (centres undefined), the survivor count [1] was 0 of 10 on day 14.

CCN(CC)c1ccc2[nH]c3c(C(N)=O)cc(=O)c(=O)c=3oc2c1 was tested, and the survivor count (dose: 400.0 mg/kg/injection, schedule: Q04DX004 (ip), vehicle: saline with Tween-80) was 2 of 10 on day 9.

With CC1=NN(c2ccccc2)C(=O)C1=Nc1c(C)[nH]n(-c2ccccc2)c1=O the survivor count (dose: 800.0 mg/kg/injection, schedule: Q04DX004 (ip), vehicle: saline with Tween-80) was 6 of 10 on day 14.

Cc1c2ccccc2c(C)c2c1cc(C(=O)O)c1ccccc12 was tested, and the T/C (dose: 100.0 mg/kg/injection, schedule: Q04DX004 (ip), vehicle: sodium bicarbonate) was 133 % of control and the T/C (dose: 400.0 mg/kg/injection, schedule: Q04DX004 (ip), vehicle: sodium bicarbonate) was 128 % of control.

NNC(=O)c1ccncc1 was tested, and the survivor count (dose: 400.0 mg/kg/injection, schedule: Q04DX004 (ip), vehicle: saline) was 0 of 10 on day 9.

With COc1cc2c(c(OC)c1O)-c1ccc(OC)c(=O)cc1[C@@H](NC(=O)C(F)(F)F)CC2 the T/C (dose: 1.25 mg/kg/injection, schedule: Q04DX004 (ip), vehicle: Klucel (hydroxypropylcellulose) (HPC)) was 126 % of control, the T/C (dose: 2.5 mg/kg/injection, schedule: Q04DX004 (ip), vehicle: Klucel (hydroxypropylcellulose) (HPC)) was 137 % of control and the T/C (dose: 5.0 mg/kg/injection, schedule: Q04DX004 (ip), vehicle: Klucel (hydroxypropylcellulose) (HPC)) was 137 % of control [9 of 10 alive on day 14]. For the same compound, the T/C (dose: 10.0 mg/kg/injection, schedule: Q04DX004 (ip), vehicle: Klucel (hydroxypropylcellulose) (HPC)) was 144 % of control, the survivor count (dose: 12.0 mg/kg/injection, schedule: Q04DX004 (ip), vehicle: Klucel (hydroxypropylcellulose) (HPC)) was 6 of 10 on day 14 and the T/C (dose: 20.0 mg/kg/injection, schedule: Q04DX004 (ip), vehicle: Klucel (hydroxypropylcellulose) (HPC)) was 149 % of control [8 of 10 alive on day 14]. For the same compound, the survivor count (dose: 33.33 mg/kg/injection, schedule: Q04DX004 (ip), vehicle: Klucel (hydroxypropylcellulose) (HPC)) was 6 of 10 on day 14.

With CN(C)[C@@H]1C(=O)C(C(N)=O)=C(O)[C@@]2(O)C(=O)C3=C(O)c4c(O)ccc(Cl)c4[C@@](C)(O)[C@H]3C[C@@H]12 the survivor count (dose: 200.0 mg/kg/injection, schedule: Q04DX004 (ip), vehicle: suspension in saline) was 7 of 10 on day 14 and the survivor count (dose: 400.0 mg/kg/injection, schedule: Q04DX004 (ip), vehicle: suspension in saline) was 2 of 10 on day 14.

For Cc1ccccc1C1C(C#N)C(=O)NC(=O)C1C#N (centres undefined), the survivor count [1] was 0 of 10 on day 14.

Nc1nc([Se]c2nc(N)nc3c2ncn3C2OC(CO)C(O)C2O)c2ncn(C3OC(CO)C(O)C3O)c2n1 (centres undefined) was tested, and the T/C (dose: 50.0 mg/kg/injection, schedule: Q04DX004 (ip), vehicle: distilled water + Tween-80) was 127 and 131 % of control, the T/C (dose: 100.0 mg/kg/injection, schedule: Q04DX004 (ip), vehicle: distilled water + Tween-80) was 138 % of control and the survivor count (dose: 400.0 mg/kg/injection, schedule: Q04DX004 (ip), vehicle: distilled water + Tween-80) was 2 of 10 on day 14. For the same compound, the survivor count (dose: 800.0 mg/kg/injection, schedule: Q04DX004 (ip), vehicle: distilled water + Tween-80) was 0 of 10 on day 14.

In the case of CCCCCC[Se][Se]CCCCCC, the survivor count (dose: 50.0 mg/kg/injection, schedule: Q04DX004 (ip), vehicle: Klucel (hydroxypropylcellulose) (HPC)) is reported as 3 of 10 on day 9.

For Cc1ccc(NN=O)nc1, the T/C (dose: 6.25 mg/kg/injection, schedule: Q04DX004 (ip), vehicle: water) was 135 % of control, the T/C (dose: 12.5 mg/kg/injection, schedule: Q04DX004 (ip), vehicle: water) was 125 and 144 % of control and the T/C (dose: 25.0 mg/kg/injection, schedule: Q04DX004 (ip), vehicle: water) was 135 % of control [8 of 10 alive on day 14]. For the same compound, the survivor count (dose: 50.0 mg/kg/injection, schedule: Q04DX004 (ip), vehicle: water) was 0 of 10 on day 14 and the survivor count (dose: 100.0 mg/kg/injection, schedule: Q04DX004 (ip), vehicle: water) was 0 of 10 on day 14.
